Results on 3 substances are retold here after article PMC5312381.

Protein sequences, listed by entry. Tags and fused reporters are not part of them.
UniProt P61073: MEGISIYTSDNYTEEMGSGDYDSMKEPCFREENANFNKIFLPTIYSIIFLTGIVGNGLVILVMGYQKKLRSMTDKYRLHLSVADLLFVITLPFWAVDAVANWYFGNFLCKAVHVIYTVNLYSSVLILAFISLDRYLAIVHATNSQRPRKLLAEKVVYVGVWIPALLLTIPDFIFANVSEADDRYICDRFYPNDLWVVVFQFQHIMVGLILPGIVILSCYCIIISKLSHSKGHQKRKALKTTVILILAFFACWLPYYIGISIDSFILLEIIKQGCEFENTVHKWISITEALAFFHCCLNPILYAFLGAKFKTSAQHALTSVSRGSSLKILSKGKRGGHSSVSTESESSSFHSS
UniProt Q03113: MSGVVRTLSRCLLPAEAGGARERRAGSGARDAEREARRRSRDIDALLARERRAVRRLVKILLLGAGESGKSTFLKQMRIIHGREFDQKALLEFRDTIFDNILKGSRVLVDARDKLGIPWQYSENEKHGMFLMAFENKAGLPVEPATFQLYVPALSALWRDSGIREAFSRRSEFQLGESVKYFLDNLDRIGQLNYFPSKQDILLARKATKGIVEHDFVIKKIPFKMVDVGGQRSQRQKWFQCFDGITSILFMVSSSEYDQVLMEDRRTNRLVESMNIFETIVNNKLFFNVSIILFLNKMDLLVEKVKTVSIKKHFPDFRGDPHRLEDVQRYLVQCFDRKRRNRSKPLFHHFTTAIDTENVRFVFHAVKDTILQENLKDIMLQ
UniProt Q14344: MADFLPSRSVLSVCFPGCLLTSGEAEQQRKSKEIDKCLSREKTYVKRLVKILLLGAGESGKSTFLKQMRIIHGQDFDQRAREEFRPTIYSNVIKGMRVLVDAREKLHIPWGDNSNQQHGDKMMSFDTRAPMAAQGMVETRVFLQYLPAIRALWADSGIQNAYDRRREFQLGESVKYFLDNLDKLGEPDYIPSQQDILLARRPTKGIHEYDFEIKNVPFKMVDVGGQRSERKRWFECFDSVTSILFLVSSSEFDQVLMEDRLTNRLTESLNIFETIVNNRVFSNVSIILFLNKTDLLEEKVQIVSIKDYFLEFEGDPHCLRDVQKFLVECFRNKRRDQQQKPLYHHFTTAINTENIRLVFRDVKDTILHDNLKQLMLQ
UniProt P61586: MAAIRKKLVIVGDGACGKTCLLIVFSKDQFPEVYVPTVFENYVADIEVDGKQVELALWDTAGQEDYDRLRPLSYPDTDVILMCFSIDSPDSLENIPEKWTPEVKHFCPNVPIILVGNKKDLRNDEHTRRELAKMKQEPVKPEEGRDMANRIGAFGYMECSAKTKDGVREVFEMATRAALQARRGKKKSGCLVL

Results are given in words; binding and its absence hold for the method and conditions named. Binding seen in cells or lysates may run through a third protein. Some entries that bind do so weakly or less than the wild type.

This test concerns the target Chemokine (C-X-C motif) receptor 4 (human (endogenous in HCT116 and SW480)) (UniProt P61073). In words: co-IP; whole-cell lysates of untransfected HCT116 and SW480 cells; anti-CXCR4 (1:200) or anti-IgG at 4°C overnight, protein A/G agarose beads 4 h at 4°C, three washes with cold PBS; Western Blot with anti-Gα12, anti-Gα13 and anti-RhoA. For orientation: In western blotting, separated proteins are transferred to a membrane and probed.
As for Gα12 (from UniProt Q03113 1-381), the binding entry is “no binding”.

For Gα13 (from UniProt Q14344 1-377), the binding entry is “binds”.

Turning to “Ras homolog gene family, member A (from UniProt P61586 1-193)”, the binding entry is reported as “no binding”.
